Reference: the supplement of paper PMC12823440, “Inhibitors supercharge kinase turnover through native proteolytic circuits” (Nature, 2025)
Structures can show the parent of a compound that is named as a salt. Some of the results follow. The calls rarely recur for the same compound in another form.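 Kinases were expressed as nanoluciferase fusions in K562 cells and luminescence was read every 4 h between 2 and 18 h as percent of control, DMSO set to 100% and a positive control to 0%. A time point counts as decreased when the signal drops significantly (2 sigma). The hit call is the authors' own, does not follow from the count of time points alone, and its rule is not shown.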

Target: EGFR_L861Q (UniProt P00533)
Test: kinase-Nluc reporter destabilization hit call (1 = scored as downregulated) (binary); higher = compound decreases kinase abundance
Conditions: K562; 2-18 h

kinase-Nluc reporter destabilization hit call, inactive:
CNC(=O)c1cc(Oc2ccc(NC(=O)Nc3cc(C(C)(C)C)nn3-c3ccc4ncccc4c3)c(F)c2)ccn1 [Rebastinib] (2.5 µM) 0, CCCn1cnc2c(NCc3ccccc3)nc(NC(CC)CO)nc21 (stereo not drawn) [Ca2+ channel agonist 1] (2.5 µM) 0, Brc1c(Br)c(Br)c2n[nH]nc2c1Br (10 µM) 0, C=CC(=O)Nc1cccc(Nc2nc(Nc3ccc(OCCOC)cc3)ncc2F)c1 [Spebrutinib] (10 µM) 0, CC(C)=CC/C=C(\C)[C@H]1CC[C@]2(C)[C@@H]1[C@H](O)C[C@@H]1[C@@]3(C)CC[C@H](O[C@@H]4O[C@H](CO)[C@@H](O)[C@H](O)[C@H]4O[C@@H]4O[C@H](CO)[C@@H](O)[C@H](O)[C@H]4O)C(C)(C)[C@@H]3CC[C@]12C [Ginsenoside Rg5] (10 µM) 0, Cc1ncc(-c2ccnc(Nc3ccc(S(C)(=O)=O)cc3)n2)n1C(C)C (2.5 µM) 0, CN(C)CCOc1ccc(-c2nc(-c3ccncc3)c(-c3ccc4c(c3)CC/C4=N\O)[nH]2)cc1 (10 µM) 0, CCN(CCCOc1ccc2c(Nc3cc(CC(=O)Nc4cccc(F)c4)[nH]n3)ncnc2c1)CCOP(=O)(O)O [Barasertib] (10 µM) 0, C=CC(=O)N[C@H]1COC[C@H]1Nc1ncc2cc(-c3c(Cl)c(OC)cc(OC)c3Cl)c(=O)n(C)c2n1 (10 µM) 0

Target: EGFR_T790M (UniProt P00533)
Test: as above
Conditions: K562; 2-18 h

kinase-Nluc reporter destabilization hit call, inactive:
CC#CC(=O)N[C@H]1CCCN(c2c(F)cc(C(N)=O)c3[nH]c(C)c(C)c23)C1 [Branebrutinib] (10 µM) 0, O=C1NC(=NCc2cccs2)S/C1=C\c1ccc2ncccc2c1 (10 µM) 0, Cn1c(=O)n(-c2ccc(C(C)(C)C#N)cc2)c2c3cc(-c4cnc5ccccc5c4)ccc3ncc21 [Dactolisib (Tosylate)] (10 µM) 0, COC(=O)c1ccc2c(C(=Nc3ccc(N(C)C(=O)CN4CCN(C)CC4)cc3)c3ccccc3)c(O)[nH]c2c1 [Nintedanib] (2.5 µM) 0, COc1cc2ncnc(Nc3ccc(O)cc3)c2cc1OC (10 µM) 0, O=C(c1ccc(-c2ccc(Cl)cc2)o1)N(Cc1ccccn1)c1ccc(N2CCNCC2)cc1 [MK2-IN-1 (hydrochloride)] (10 µM) 0, CN1CCN(S(=O)(=O)c2ccc(-c3cnc(N)c(C(=O)Nc4cccnc4)n3)cc2)CC1 (10 µM) 0, CN(C)C[C@@H]1CCn2cc(c3ccccc32)C2=C(C(=O)NC2=O)c2cn(c3ccccc23)CCO1 [Ruboxistaurin (hydrochloride)] (10 µM) 0, COc1ccc(Oc2cc(NCCC(F)(F)F)c3ncc(-c4ccc(C(=O)NC5CC5)c(C)c4)n3n2)c(F)c1F (2.5 µM) 0, CCCCNc1ncc(-c2ccc(CN3CCOCC3)cn2)c(NC2CCC(O)CC2)n1 (stereo not drawn) (10 µM) 0, O=C(Nc1cc(C(F)(F)F)ccc1N1CCN(Cc2ccccn2)CC1)c1ccc(-c2ccncc2)o1 (10 µM) 0, CC(C)(/C=C(\C#N)C(=O)N1CCC[C@@H](n2nc(-c3ccc(Oc4ccccc4)cc3F)c3c(N)ncnc32)C1)N1CCN(C2COC2)CC1 (2.5 µM) 0, CNC(=O)c1cccc2cc(Oc3ccnc4cc(OCC5(N)CC5)c(OC)cc34)ccc12 [Lucitanib] (10 µM) 0, COc1cc(F)cc([C@@H](CO)NC(=O)[C@@H](C)N2Cc3ccc(-c4nc(NC5CCOCC5)ncc4Cl)cc3C2=O)c1 [ERK1/2 inhibitor 2] (10 µM) 0, O=c1cc(-c2ccccc2)oc2c(O)c(O)ccc12 [7,8-Dihydroxyflavone] (10 µM) 0, C=CC(=O)N1CC[C@H](n2nc(C#Cc3cc(OC)cc(OC)c3)c3c(N)ncnc32)C1 [Futibatinib] (10 µM) 0, O=C1Nc2ccccc2/C1=C/c1ccc(F)cc1 (10 µM) 0, CN(C)Cc1ccc(-c2cnn3c(-c4cccc(NC(=O)c5cccc(C(F)(F)F)c5)c4)ccnc23)cc1 (2.5 µM) 0, Cc1c[nH]c(/C=C2\C(=O)Nc3ccccc32)c1CCC(=O)O (10 µM) 0
